Laboratory results published in PMC10270597.

B1: HSD17B10 (protein, UniProt Q99714 1-261)
chain: MAAACRSVKGLVAVITGGASGLGLATAERLVGQGASAVLLDLPNSGGEAQAKKLGNNCVFAPADVTSEKDVQTALALAKGKFGRVDVAVNCAGIAVASKTYNLKKGQTHTLEDFQRVLDVNLMGTFNVIRLVAGEMGQNEPDQGGQRGVIINTASVAAFEGQVGQAAYSASKGGIVGMTLPIARDLAPIGIRVMTIAPGLFGTPLLTSLPEKVCNFLASQVPFPSRLGDPAEYAHLVQAIIENPFLNGEVIRLDGAIRMQP
B2: TAB1 (protein, UniProt Q15750 1-504)
chain: MAAQRRSLLQSEQQPSWTDDLPLCHLSGVGSASNRSYSADGKGTESHPPEDSWLKFRSENNCFLYGVFNGYDGNRVTNFVAQRLSAELLLGQLNAEHAEADVRRVLLQAFDVVERSFLESIDDALAEKASLQSQLPEGVPQHQLPPQYQKILERLKTLEREISGGAMAVVAVLLNNKLYVANVGTNRALLCKSTVDGLQVTQLNVDHTTENEDELFRLSQLGLDAGKIKQVGIICGQESTRRIGDYKVKYGYTDIDLLSAAKSKPIIAEPEIHGAQPLDGVTGFLVLMSEGLYKALEAAHGPGQANQEIAAMIDTEFAKQTSLDAVAQAVVDRVKRIHSDTFASGGERARFCPRHEDMTLLVRNFGYPLGEMSQPTPSPAPAAGGRVYPVSVPYSSAQSTSKTSVTLSLVMPSQGQMVNGAHSASTLDEATPTLTNQSPTLTLQSTNTHTQSSSSSSDGGLFRSRPAHSLPPGEDGRVEPYVDFAEFYRLWSVDHGEQSVVTAP
B3: ANKFY1 (protein, UniProt Q9P2R3 1-1169)
chain: MAEEEVAKLEKHLMLLRQEYVKLQKKLAETEKRCALLAAQANKESSSESFISRLLAIVADLYEQEQYSDLKIKVGDRHISAHKFVLAARSDSWSLANLSSTKELDLSDANPEVTMTMLRWIYTDELEFREDDVFLTELMKLANRFQLQLLRERCEKGVMSLVNVRNCIRFYQTAEELNASTLMNYCAEIIASHWDDLRKEDFSSMSAQLLYKMIKSKTEYPLHKAIKVEREDVVFLYLIEMDSQLPGKLNEADHNGDLALDLALSRRLESIATTLVSHKADVDMVDKSGWSLLHKGIQRGDLFAATFLIKNGAFVNAATLGAQETPLHLVALYSSKKHSADVMSEMAQIAEALLQAGANPNMQDSKGRTPLHVSIMAGNEYVFSQLLQCKQLDLELKDHEGSTALWLAVQHITVSSDQSVNPFEDVPVVNGTSFDENSFAARLIQRGSHTDAPDTATGNCLLQRAAGAGNEAAALFLATNGAHVNHRNKWGETPLHTACRHGLANLTAELLQQGANPNLQTEEALPLPKEAASLTSLADSVHLQTPLHMAIAYNHPDVVSVILEQKANALHATNNLQIIPDFSLKDSRDQTVLGLALWTGMHTIAAQLLGSGAAINDTMSDGQTLLHMAIQRQDSKSALFLLEHQADINVRTQDGETALQLAIRNQLPLVVDAICTRGADMSVPDEKGNPPLWLALANNLEDIASTLVRHGCDATCWGPGPGGCLQTLLHRAIDENNEPTACFLIRSGCDVNSPRQPGANGEGEEEARDGQTPLHLAASWGLEETVQCLLEFGANVNAQDAEGRTPIHVAISSQHGVIIQLLVSHPDIHLNVRDRQGLTPFACAMTFKNNKSAEAILKRESGAAEQVDNKGRNFLHVAVQNSDIESVLFLISVHANVNSRVQDASKLTPLHLAVQAGSEIIVRNLLLAGAKVNELTKHRQTALHLAAQQDLPTICSVLLENGVDFAAVDENGNNALHLAVMHGRLNNIRVLLTECTVDAEAFNLRGQSPLHILGQYGKENAAAIFDLFLECMPGYPLDKPDADGSTVLLLAYMKGNANLCRAIVRSGARLGVNNNQGVNIFNYQVATKQLLFRLLDMLSKEPPWCDGSYCYECTARFGVTTRKHHCRHCGRLLCHKCSTKEIPIIKFDLNKPVRVCNICFDVLTLGGVS

Target: Flag tagged HEV ORF1 protein (ORF1-Flag) (hepatitis E virus (HEV))
Assay: affinity purification with mass spectrometry; SILAC-labelled HepG2C3A cells expressing ORF1-Flag or GFP-Flag; lysates (50 mM Tris-HCl pH 7.5, 150 mM NaCl, 1 mM EDTA, 1% NP-40) on anti-Flag M2 magnetic beads overnight at 4°C; light and heavy eluates mixed, Orbitrap Fusion MS; hits ORF1/GFP fold change>3 and score>5

Binder	binding
B1	binds
B2	binds
B3	binds

These are yes or no findings as the source states them, for the method shown. Binding seen in cells or lysates may run through a third protein. A yes stands for co-enrichment or nearness to the bait. Other partners may have been found.
